Experimental data reported in patent US20150247841A1, “NEUROFURANS-INDICES OF OXIDANT STRESS” (The Trustees of the University of Pennsylvania, priority 2008, published 2015).
Some compounds share one wording; it may come from a single statement.

Columns and labels:
[1] = Brain levels in Tg 2576 transgenic mouse model of AD vs littermate controls, LC/MS/MS; format: in vivo
Protocol: (ii) Tg 2576 transgenic mouse model of AD: Eight female Tg 2576 transgenic mice and 8 female littermate controls were anesthetized prior to sacrifice and removal of their brains at the age of 15 months. The brains were rapidly frozen in liquid nitrogen prior to placement at −80° C. Total lipids were extracted and purified as described above. Purified lipid extracts were analyzed by LC/MS/MS. [^2H4]8,12-iso-iPF2α-VI was added as internal standard.

[2] = In vitro oxidation of DHA with AAPH, LC/MS/MS
Protocol: In Vitro Oxidation of DHA: Docosahexaenoic acid (DHA), obtained from Cayman Chemical Co. (Ann Arbor, Mich.) was dissolved in ethanol and added to 5 mL PBS, pH 7.4, to a final concentration of 20 mM. 2,2′-azobis(2-amidinopropane)hydrochloride (AAPH; Sigma, St. Louis, Mo.) was used as an oxidant as described (Fessel et al., 2002, Proc Natl Acad Sci USA. 99(26):16713-8). Reactions were allowed to proceed at 37° C., and aliquots were removed for analysis at 0, 2, 4, 8, 12, 24, and 30 hours. Reactions were stopped by immersing the tube in an ice water bath. The aliquots were diluted by a factor of 100 with water. 1.5 ng of [^2H4]8,12-iso-iPF2α-VI was added as internal standard to 10 μL aliquots of the diluted samples. They were then acidified to pH<3 with formic acid and extracted with ethyl acetate. The samples were then purified by SPE before LC/MS/MS analysis. […]
MS Analyses: Unknown compounds were characterized by stable isotope dilution gas chromatography/electron capture/negative ionization (GC/EC/NI)/MS as the pentafluorobenzyl (PFB) ester, trimethylsilyl (TMS) ether derivative as described (Fessel et al., 2002, Proc Natl Acad Sci USA. 99(26):16713-8). […] Fragmentation patterns of the unknown compounds were analyzed by electrospray (ES) MS/MS in the negative ion mode. [^2H4]8,12-iso-iPF2α-VI was used as an internal standard for quantitation.

[3] = In vivo oxidation: analysis of liver from CCl4-treated mice, LC/MS/MS; design: species or system mouse
Protocol: In Vivo Oxidation—Analysis of Liver from CCl4-Treated Mice: Treatment of mice with CCl4 was used to induce oxidant injury to the liver as previously described (Kadiiska et al, 2005, Radic Biol Med. 38(6):711-8). Three month-old C57/BL6 male mice were fasted overnight and then administered intraperitoneal (i.p.) injections of CCl4 (4 g/kg body weight). CCl4 was mixed with canola oil (1:1 by volume). Mice were anesthetized with CO2 prior to sacrifice at 0, 1, 2.5, 7.5, or 20 hours after CCl4 administration, their livers were removed and rapidly frozen in liquid nitrogen prior to storage at −80° C. Total lipids were extracted using a modified Folch procedure (Pratico et al., 1997, J Clin Invest. 100(8):2028-34. Erratum in: J Clin Invest 1997 Nov. 15; 100(10):2637). Briefly, frozen samples (0.1-0.5 g) were suspended in 5 mL ice-cold chloroform:methanol (2:1, v/v) with 0.005% (w/v) butylated hydroxytoluene to suppress oxidation. Samples were homogenized using a TissueLyzer™ (Qiagen, Valencia, Calif.). The lipid extracts were mixed vigorously with 2.0 mL NaCl (0.9%, w/v), and the phases separated by centrifugation. After the upper phase was decanted, samples were transferred to clean tubes, and the residual organic solvent was removed under a stream of nitrogen. Total lipids were dissolved in 0.5 mL methanol and stored at −80° C. Lipid extracts were then saponified by adding 0.5 mL of 2.7 N KOH in 0.5 mL methanol. The mixture was then sonicated and mixed vigorously until thoroughly suspended, then heated at 37° C. for 30 minutes. The pH was adjusted to 3.0 with 1.2 mL 1N HCl. Next, 1.0 ng of [^2H4]8,12-iso-iPF2α-VI was added as an internal standard. The samples were purified by solid phase extraction (SPE) using Strata™-X cartridges (Phenomenex, Torrance, Calif.). Purified lipid extracts were analyzed by liquid chromatography/tandem mass spectrometry (LC/MS/MS).
MS Analyses: Unknown compounds were characterized by stable isotope dilution gas chromatography/electron capture/negative ionization (GC/EC/NI)/MS as the pentafluorobenzyl (PFB) ester, trimethylsilyl (TMS) ether derivative as described (Fessel et al., 2002, Proc Natl Acad Sci USA. 99(26):16713-8). [^2H9]TMS ether derivatization was used to determine the number of the hydroxyl groups. Catalytic hydrogenation was used to reveal the number of double bonds. Compounds were also subjected to methoxime (MO) derivatization conditions to exclude the presence of ketone or aldehyde groups. Exposure to HCl excluded the possibility of epoxides. Fragmentation patterns of the unknown compounds were analyzed by electrospray (ES) MS/MS in the negative ion mode. [^2H4]8,12-iso-iPF2α-VI was used as an internal standard for quantitation.

[4] = Brain levels in P47phox knockout mice vs wild type controls, LC/MS/MS; format: in vivo, mouse; conditions: 9 months
Protocol: Ten knockout mice (5 male and 5 female) and ten wild type controls (5 male and 5 female) were anesthetized prior to sacrifice and removal of the brain at the age of 9 months. The brains were rapidly frozen in liquid nitrogen prior to placement at −80° C. Total lipids were extracted from the brains using a modified Folch procedure. Purified lipid extracts were analyzed by LC/MS/MS. [^2H4]8,12-iso-iPF2α-VI was added as an internal standard.

[5] = Tg2576 mouse brain cortex, 15 months
[6] = non-transgenic littermate control brain cortex

Row | Substance | level in brain cortex [1, 5] [ng/g tissue weight] | difference in level in cerebellum, Tg 2576 vs control mice [1] | level in brain cortex [1, 6] [ng/g tissue weight] | effect of increasing oxygen tension on formation ([2]; in vitro oxidation of DHA, various oxygen tension) | maximum formation during oxidation of DHA ([2]; oxidation of DHA using AAPH, maximum by 6 hours) | mean level in mouse liver ([3]; 2.5 hours after CCl4 (4 g/kg i.p.)) [ng/g tissue weight] | mean level in mouse liver ([3]; before CCl4 injection) [ng/g tissue weight] | level of unmetabolized compound in mouse plasma and urine ([3]; mouse plasma and urine) | mean level in mouse liver ([3]; one hour after CCl4 (4 g/kg i.p.)) [ng/g] | mean level in brain cortex ([4]; p47phox knockout mice) [ng/g tissue weight] | mean level in brain cortex ([4]; wild type control mice) [ng/g]
1 | isoprostanes [iPs] | 7.1 | no significant difference | 5.4 | – | – | – | – | – | – | – | –
2 | neurofurans [nFs] | 173.2 | no significant difference | 109.1 | did not detectably favor | roughly 15 ng/μg DHA | 1330.6 | 141.3 | below the detectable level | 412.2 | 99.3 | 156.2
3 | neuroprostanes [nPs] | 14.3 | no significant difference | 10.5 | – | – | – | – | – | – | – | –
